Results are given in words; binding and its absence hold for the method and conditions named. Binding seen in cells or lysates may run through a third protein. A yes stands for co-enrichment or nearness to the bait. Other partners may have been found.
Target: EML1-3DDK fusion protein (echinoderm microtubule associated protein like 1, mouse) (mouse) (UniProt Q05BC3)
Test: affinity purification with mass spectrometry; IP of EML1-3DDK from lysate of transfected HEK293 cells with anti-FLAG (DDK) M2 antibody (Pierce Crosslink Immunoprecipitation Kit); IP products of two independent experiments resolved on 10% SDS-PAGE, in-gel trypsin digestion, LC-ESI-MS/MS, search against the human UniProt database

Protein sequences, listed by entry. Tags and fused reporters are not part of them.
UniProt Q05BC3: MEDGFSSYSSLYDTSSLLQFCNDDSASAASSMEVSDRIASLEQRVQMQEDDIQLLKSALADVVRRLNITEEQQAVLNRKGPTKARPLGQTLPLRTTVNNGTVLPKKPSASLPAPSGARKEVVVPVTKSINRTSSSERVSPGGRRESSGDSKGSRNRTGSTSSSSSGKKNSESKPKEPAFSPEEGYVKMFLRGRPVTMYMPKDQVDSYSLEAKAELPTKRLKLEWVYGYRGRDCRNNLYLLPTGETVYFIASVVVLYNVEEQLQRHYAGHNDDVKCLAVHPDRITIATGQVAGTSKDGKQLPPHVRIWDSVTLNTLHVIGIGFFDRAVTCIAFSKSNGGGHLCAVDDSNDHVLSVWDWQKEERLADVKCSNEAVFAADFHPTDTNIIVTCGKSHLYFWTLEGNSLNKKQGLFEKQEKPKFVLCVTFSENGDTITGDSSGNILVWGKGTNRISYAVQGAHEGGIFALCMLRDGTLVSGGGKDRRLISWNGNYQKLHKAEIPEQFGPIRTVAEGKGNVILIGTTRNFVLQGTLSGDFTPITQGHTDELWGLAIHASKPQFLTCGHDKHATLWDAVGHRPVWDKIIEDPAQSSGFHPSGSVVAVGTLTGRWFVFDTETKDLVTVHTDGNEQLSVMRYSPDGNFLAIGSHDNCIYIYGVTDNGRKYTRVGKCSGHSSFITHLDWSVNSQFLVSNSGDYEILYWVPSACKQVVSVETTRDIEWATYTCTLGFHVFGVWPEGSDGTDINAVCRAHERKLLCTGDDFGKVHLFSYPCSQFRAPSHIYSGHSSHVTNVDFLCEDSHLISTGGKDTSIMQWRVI

Binder	binding
EML2 (protein, UniProt O95834 1-649) MSSFGAGKTKEVIFSVEDGSVKMFLRGRPVPMMIPDELAPTYSLDTRSELPSCRLKLEWVYGYRGRDCRANLYLLPTGEIVYFVASVAVLYSVEEQRQRHYLGHNDDIKCLAIHPDMVTIATGQVAGTTKEGKPLPPHVRIWDSVSLSTLHVLGLGVFDRAVCCVGFSKSNGGNLLCAVDESNDHMLSVWDWAKETKVVDVKCSNEAVLVATFHPTDPTVLITCGKSHIYFWTLEGGSLSKRQGLFEKHEKPKYVLCVTFLEGGDVVTGDSGGNLYVWGKGGNRITQAVLGAHDGGVFGLCALRDGTLVSGGGRDRRVVLWGSDYSKLQEVEVPEDFGPVRTVAEGHGDTLYVGTTRNSILQGSVHTGFSLLVQGHVEELWGLATHPSRAQFVTCGQDKLVHLWSSDSHQPLWSRIIEDPARSAGFHPSGSVLAVGTVTGRWLLLDTETHDLVAIHTDGNEQISVVSFSPDGAYLAVGSHDNLVYVYTVDQGGRKVSRLGKCSGHSSFITHLDWAQDSSCFVTNSGDYEILYWDPATCKQITSADAVRNMEWATATCVLGFGVFGIWSEGADGTDINAVARSHDGKLLASADDFGKVHLFSYPCCQPRALSHKYGGHSSHVTNVAFLWDDSMALTTGGKDTSVLQWRVV	binds
EML4 (protein, UniProt Q9HC35 1-981) MDGFAGSLDDSISAASTSDVQDRLSALESRVQQQEDEITVLKAALADVLRRLAISEDHVASVKKSVSSKGQPSPRAVIPMSCITNGSGANRKPSHTSAVSIAGKETLSSAAKSGTEKKKEKPQGQREKKEESHSNDQSPQIRASPSPQPSSQPLQIHRQTPESKNATPTKSIKRPSPAEKSHNSWENSDDSRNKLSKIPSTPKLIPKVTKTADKHKDVIINQEGEYIKMFMRGRPITMFIPSDVDNYDDIRTELPPEKLKLEWAYGYRGKDCRANVYLLPTGKIVYFIASVVVLFNYEERTQRHYLGHTDCVKCLAIHPDKIRIATGQIAGVDKDGRPLQPHVRVWDSVTLSTLQIIGLGTFERGVGCLDFSKADSGVHLCIIDDSNEHMLTVWDWQKKAKGAEIKTTNEVVLAVEFHPTDANTIITCGKSHIFFWTWSGNSLTRKQGIFGKYEKPKFVQCLAFLGNGDVLTGDSGGVMLIWSKTTVEPTPGKGPKGVYQISKQIKAHDGSVFTLCQMRNGMLLTGGGKDRKIILWDHDLNPEREIEVPDQYGTIRAVAEGKADQFLVGTSRNFILRGTFNDGFQIEVQGHTDELWGLATHPFKDLLLTCAQDRQVCLWNSMEHRLEWTRLVDEPGHCADFHPSGTVVAIGTHSGRWFVLDAETRDLVSIHTDGNEQLSVMRYSIDGTFLAVGSHDNFIYLYVVSENGRKYSRYGRCTGHSSYITHLDWSPDNKYIMSNSGDYEILYWDIPNGCKLIRNRSDCKDIDWTTYTCVLGFQVFGVWPEGSDGTDINALVRSHNRKVIAVADDFCKVHLFQYPCSKAKAPSHKYSAHSSHVTNVSFTHNDSHLISTGGKDMSIIQWKLVEKLSLPQNETVADTTLTKAPVSSTESVIQSNTPTPPPSQPLNETAEEESRISSSPTLLENSLEQTVEPSEDHSEEESEEGSGDLGEPLYEEPCNEISKEQAKATLLEDQQDPSPSS	binds

Reference: publication PMC8194061
